Results taken from patent US6653298B2, “Composition” (Sterix Limited, priority 2000, dated 2003).
Some of these results come from one statement about several compounds together.

Assay: Distribution of compound in blood (erythrocyte binding)

SMILES: CC12CCC3c4ccc(OS(N)(=O)=O)cc4CCC3C1CCC2=O (stereo not shown) [EMATE, oestrone-3-O-sulphamate]
- compound in blood bound to erythrocytes: up to 99%
